According to US10143730B2, “Peptides and combination of peptides for use in immunotherapy against various cancers” (immatics biotechnologies GmbH, priority 2015, dated 2018):
For some assays here: Expression grades refer to the transcript from which the peptide derives; gene names, where given, were looked up from the sequence.

Columns and labels:
[1] = test system: source genes of the peptides (mRNA); assay: Source gene/exon expression, TCGA tumor samples versus normal tissue RNASeq database (target coverage); parameters: species or system human; conditions: KICH = Kidney chromophobe (N = 66); TCGA tumors >2-fold above highest 75% percentile of normal tissues
[2] = test system: HLA-A*02 molecules of primary tumor and normal tissue samples; assay: Identification and label-free relative LC-MS quantitation of HLA-A*02 tumor associated peptides presented on tissue samples (XPRESIDENT); parameters: species or system human; key to Presentation score AML / Presentation score UEC / Presentation score CLL / Presentation score CRC: specifically presented on tumors (++++); very highly over-presented on tumors compared to a panel of normal tissues (+++); highly over-presented on tumors compared to a panel of normal tissues (++); over-presented on tumors compared to a panel of normal tissues (+); conditions: HLA-A*02 peptides; CRC = colorectal cancer (N = 28) vs panel of normal tissues (N = 262)

Substance | Over-expression category of source gene (target coverage), KICH [1] | Presentation score CRC [2]
235: peptide found in MSH6 (gene looked up) (KIIDFLSAL; listed as Homo sapiens) [compound 235] | A (>=50% of tumors above the cutoff) | 
293 (FLVDGSWSI; listed as Homo sapiens) [compound 293] |  | ++++
